Data as given in PubChem BioAssay AID504444 (National Center for Advancing Translational Sciences (NCATS), 2011).
The campaign covered roughly 360,000 compounds. About 7,500 (2.1%) were called active. Inconclusive results, whose numbers are uncertain, are shown with a selection of clear calls. Calls come from the whole dose curve; as a rule, active = well fitted inhibition curve with a large enough effect; inconclusive = small, poorly fitted or top-dose-only effect, or effect the other way; inactive = flat fitted curve, though single readings scatter. A potency beside an inconclusive call is a rough fit, not a confirmed value.

Assay: Nrf2 qHTS screen for inhibitors; note: nearly all actives have a fitted effect of over 60% in size
Conditions: A549 ARE-Fluc reporter, luciferase luminescence, 18-24 h; activity change, negative = inhibition: at 46 µM (top of the series)
Method in brief: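 Nrf2 function is reported as luminescence of an ARE-controlled luciferase in A549 cells. Compounds were tested at several concentrations, and a CellTiter-Fluor read on the same wells flagged cytotoxicity.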
% is set by controls: 0 for no effect and ±100 for the full control effect; potency is the fitted concentration of half-maximal effect.

Q: For `COc1ccc(C/C(C)=N/NC(=O)c2ccncc2)cc1`, which “activity change, negative = inhibition” value is on record?
A: inactive: 9.67%

Q: For `COc1ccc(CCNC(=O)CSc2cn(CCNC(=O)c3ccc(OC)c(OC)c3)c3ccccc23)cc1OC`, which Potency is on record?
A: inconclusive: 25.9 µM [falling, single point]

Q: For `C/C(=N\NC(=O)C1CC1)c1cccs1`, which Potency is on record?
A: inconclusive: 23.1 µM [activator, single point]

Q: For `CCCCCc1c(C)nc(Nc2ccccc2)[nH]c1=O`, which Potency is on record?
A: inconclusive: 25.9 µM [falling, single point]

Q: With `COc1ccccc1NC(=O)c1ccc(Br)o1` as the molecule, how does the Potency read?
A: inconclusive: 0.259 µM [activator, full curve, poor fit]

Q: For `CCN(Cc1ccccc1)C(c1ccc(C(F)(F)F)cc1)c1nnnn1C(C)(C)C` (stereo unspecified), which Potency is on record?
A: inconclusive: 29.1 µM [falling, single point]

Q: Which “activity change, negative = inhibition” value does the source give for `OCCCCNc1cccc2ccccc12` here?
A: inactive: 10.1%

Q: Which “activity change, negative = inhibition” value does the source give for `O=C(NCCNCCO)c1c(O)c2cccc3c2n(c1=O)CCC3` here?
A: inactive: 1.82%

Q: Which Potency does the source give for `Cn1ccnc1SCC(=O)Nc1ccc2c(c1)OCCO2` here?
A: inconclusive: 1.84 µM [activator, partial curve]

Q: Which Potency does the source give for `CCCCC(=O)Nc1ccc2c(c1)oc1ccccc12` here?
A: inconclusive: 9.2 µM [activator, single point]

Q: With `C=CCN(CC=C)C(=O)c1cccc(OC2CCN(CC(C)(C)C)CC2)c1` as the molecule, how does the Potency read?
A: inconclusive: 9.2 µM [activator, partial curve, poor fit]

Q: Which “activity change, negative = inhibition” value does the source give for `CCOc1ccc(Nc2oc(/C=C/c3cc(OC)c(OC)c(OC)c3)nc2C#N)cc1` here?
A: inactive: -0.834%

Q: Which Potency does the source give for `O=C(CSc1nnc(-c2ccccc2)n1Cc1ccccc1)NNC(=O)c1ccccc1O` here?
A: inconclusive: 0.184 µM [activator, partial curve, poor fit]

Q: With `Cc1ccc(NS(=O)(=O)c2cc(NC(=O)c3ccc4c(c3)NC(=O)CS4)ccc2Cl)c(C)c1` as the molecule, how does the Potency read?
A: active: 7.31 µM

Q: Which Potency does the source give for `C=CCN(c1ccc(Cl)cc1)S(=O)(=O)c1cccc(C(=O)OCC(=O)N(C)C)c1` here?
A: inconclusive: 29.1 µM [falling, single point]

Q: For `COCC(C)NC(=O)CCc1nnc(C2(c3ccc(Cl)cc3)CCC2)o1` (stereo unspecified), which Potency is on record?
A: inconclusive: 23.1 µM [activator, partial curve]

Q: With `COc1ccccc1OCC(=O)Nc1cc(S(=O)(=O)N2CCOCC2)ccc1N1CCCCC1` as the molecule, how does the Potency read?
A: inconclusive: 18.4 µM [falling, single point]

Q: Which Potency does the source give for `COc1ccc(N2CCN(S(=O)(=O)CCNC(=O)c3ccc(Br)o3)CC2)cc1` here?
A: inconclusive: 29.1 µM [falling, single point]

Q: With `CCCS(=O)(=O)c1ccc(COC(=O)c2ccc(NC(C)=O)cc2)cc1` as the molecule, how does the “activity change, negative = inhibition” value read?
A: inactive: -2.87%

Q: With `COc1ccc(OC)c(C2CC(=O)Nc3ccc4ccccc4c32)c1` (stereo unspecified) as the molecule, how does the Potency read?
A: inconclusive: 29.1 µM [falling, single point]

Q: For `Cc1ccccc1NC(=O)Nc1ccc2c(c1)OCO2`, which Potency is on record?
A: inconclusive: 2.06 µM [activator, full curve]

Q: For `Cc1ccc(CNc2c(C)c(C)nc3nncn23)cc1`, which Potency is on record?
A: active: 3.66 µM

Q: With `O=C(Nc1ccccc1N1CCOCC1)c1cc2c(s1)CCCCC2` as the molecule, how does the Potency read?
A: inconclusive: 18.4 µM [activator, partial curve]

Q: Which Potency does the source give for `CCN1CCN(c2ccc(NC(=O)c3cccc(N4CCCC4=O)c3)cc2)CC1` here?
A: inconclusive: 29.1 µM [activator, single point]

Q: With `CCc1ccc(C(=O)N/N=C/c2ccncc2)s1` as the molecule, how does the Potency read?
A: inconclusive: 14.6 µM [falling, single point]

Q: With `O=C(CCCC(=O)N(CC(=O)NC1CCCCC1)c1ccccc1F)Nc1ccccn1` as the molecule, how does the Potency read?
A: inconclusive: 1.64 µM [activator, partial curve, poor fit]

Q: Which Potency does the source give for `Cc1ccc(Cn2ncc3c(N4CCN(CCc5ccccc5)CC4)ncnc32)cc1` here?
A: inconclusive: 5.8 µM [falling, full curve, poor fit]

Q: Which Potency does the source give for `CCOCCCn1c(SCC(=O)Nc2ccccc2OC)nc2c(oc3ccccc32)c1=O` here?
A: inconclusive: 29.1 µM [falling, single point]

Q: With `N/C(=N/OC(=O)c1ccccc1Cl)c1nonc1N` as the molecule, how does the Potency read?
A: inconclusive: 16.4 µM [activator, partial curve]

Q: For `COc1ccccc1C1=Nn2c(nc3sc(C(=O)Nc4ccccc4Cl)c(C)c3c2=O)SC1`, which Potency is on record?
A: inconclusive: 29.1 µM [falling, single point]

Q: With `O=C1CC(c2cc(-c3ccccc3)no2)C1` as the molecule, how does the Potency read?
A: inconclusive: 8.2 µM [activator, partial curve]

Q: For `O=C(Nc1ccc(Br)c(Cl)c1)C1CC1`, which Potency is on record?
A: active: 14.6 µM

Q: For `CCOc1ccccc1N1CC(c2nc3ccccc3n2CCCCOc2ccccc2)CC1=O` (stereo unspecified), which Potency is on record?
A: inconclusive: 29.1 µM [falling, single point]

Q: For `CCn1c(=O)c2ccccc2n(Cc2ccccc2C)c1=O`, which Potency is on record?
A: inconclusive: 4.61 µM [activator, full curve, poor fit]

Q: For `Cc1ccc(C)c(CN2C(=O)c3ccccc3S(=O)(=O)c3ccc(C(=O)N4CCN(Cc5ccccc5)CC4)cc32)c1`, which Potency is on record?
A: inconclusive: 9.2 µM [falling, partial curve, poor fit]

Q: With `CC(C)Cn1c(SCc2cccc(F)c2)nc2ccsc2c1=O` as the molecule, how does the “activity change, negative = inhibition” value read?
A: inactive: -12.5%

Q: For `Cc1ccc(S(=O)(=O)N2CCN(C(=O)c3ccc(COc4ccccc4)o3)CC2)cc1`, which Potency is on record?
A: active: 23.1 µM

Q: For `COC(=O)C1=C(C)N(Cc2ccccc2)C(=NCc2cccc(C(F)(F)F)c2)N[C@H]1c1cccc(C(F)(F)F)c1`, which Potency is on record?
A: inconclusive: 29.1 µM [falling, single point]

Q: With `COc1ccccc1N1C(=O)c2cccnc2C1=O` as the molecule, how does the “activity change, negative = inhibition” value read?
A: inactive: 3.34%

Q: Which Potency does the source give for `O=C(Cc1ccc(Cl)cc1Cl)Nc1ccncc1` here?
A: active: 16.4 µM

Q: With `Cc1cccc(OCCNc2ccc(C(F)(F)F)cc2[N+](=O)[O-])c1` as the molecule, how does the Potency read?
A: inconclusive: 29.1 µM [activator, single point]

Q: Which “activity change, negative = inhibition” value does the source give for `N#CC(C#N)=Cc1ccc(NC(=O)c2ccc(Br)cc2)cc1` here?
A: inactive: 16.4%

Q: With `C(=C\n1nnc2ccccc21)/c1ccccn1` as the molecule, how does the Potency read?
A: inconclusive: 2.31 µM [activator, full curve]

Q: With `O=C(NNC(=S)NC(=O)c1ccco1)c1ccc(NC(=O)c2ccccc2)cc1` as the molecule, how does the Potency read?
A: inconclusive: 20.6 µM [falling, single point]

Q: With `CC(C)(C)NC(=O)CN(c1cccc([N+](=O)[O-])c1)S(=O)(=O)c1ccccc1` as the molecule, how does the Potency read?
A: inconclusive: 25.9 µM [activator, single point]

Q: Which Potency does the source give for `CN(C(=O)c1cccc(NC(=O)Cc2ccc(NC(=O)C3CCCN(C(=O)C4CCCC4)C3)cc2)c1)C1CCCC1` (stereo unspecified) here?
A: inconclusive: 25.9 µM [falling, single point]

Q: With `CSc1ccccc1NC(=S)N/N=C/c1cccn1Cc1ccc(F)cc1` as the molecule, how does the Potency read?
A: inconclusive: 20.6 µM [falling, single point]

Q: Which Potency does the source give for `Cc1ccc(C(=O)COC(=O)c2ccc(O)cc2)cc1` here?
A: inconclusive: 29.1 µM [activator, single point]

Q: Which Potency does the source give for `CC(=O)c1sc(NC(=O)c2ccc(C)cc2)nc1C` here?
A: inconclusive: 29.1 µM [activator, single point]

Q: For `CCOC(=O)Cn1ccc(-c2ccccc2)c(C#N)c1=O`, which “activity change, negative = inhibition” value is on record?
A: inactive: 11.1%

Q: Which Potency does the source give for `O=[N+]([O-])c1ccc(N/N=C/c2cccs2)nc1` here?
A: inconclusive: 18.4 µM [activator, partial curve]

Q: Which Potency does the source give for `CC(=O)N1CCCc2ccc(NS(=O)(=O)c3ccc(C)c(C)c3)cc21` here?
A: inconclusive: 16.4 µM [falling, partial curve]

Q: Which Potency does the source give for `CC[C@@H](C(=O)[C@@H](C)[C@@H](O)[C@H](C)CCc1ccc(C)c(O)c1C(=O)O)[C@H]1O[C@](CC)([C@H]2CC[C@](O)(CC)[C@H](C)O2)C[C@@H]1C` here?
A: active: 5.17 µM

Q: With `CCc1cc2c(cc3c(=O)n(CC(=O)N4CCC(C)CC4)nc(CC)n32)s1` as the molecule, how does the Potency read?
A: inconclusive: 1.3 µM [activator, full curve, poor fit]

Q: For `CC(C)CCn1c2ccccc2c2cc(CC(N)=O)ccc21`, which Potency is on record?
A: inconclusive: 13 µM [activator, partial curve]

Q: With `CCCCCn1c(NCc2ccccc2OC)nc2ccccc21` as the molecule, how does the Potency read?
A: inconclusive: 20.6 µM [falling, single point]

Q: With `CN(c1ccccc1)S(=O)(=O)c1cccc(NC(=O)c2ccc(=O)[nH]n2)c1` as the molecule, how does the Potency read?
A: inconclusive: 23.1 µM [falling, single point]

Q: For `Cc1ccnc(NC(=O)c2ccc(Cl)c(S(=O)(=O)N3CCCCC3)c2)c1`, which Potency is on record?
A: inconclusive: 29.1 µM [falling, single point]

Q: For `CCN(CC)S(=O)(=O)c1ccc2c(c1)c(=O)c(C(=O)NCc1ccc(Cl)cc1)cn2C`, which Potency is on record?
A: inconclusive: 29.1 µM [falling, single point]

Q: Which Potency does the source give for `Cc1cc(C)c(C(=O)/C=C/c2ccc(C(C)C)cc2)c(=O)[nH]1` here?
A: active: 18.4 µM

Q: Which Potency does the source give for `CC(C)(C)OC(=O)NCCCC[C@@H](C(=O)NCCCCCCCCCCC(=O)N1CCN(C(=O)OC(C)(C)C)CC1)n1cc(CCO)nn1` here?
A: inconclusive: 23.1 µM [falling, single point]

Q: Which Potency does the source give for `O=C(CSc1ncnc2c1cnn2-c1ccccc1)NC1CCCC1` here?
A: inconclusive: 18.4 µM [falling, single point]

Q: Which Potency does the source give for `CCCCCC[n+]1c(-c2ccc(Cl)cc2Cl)csc1Nc1ccccc1` here?
A: inconclusive: 20.6 µM [falling, single point]

Q: With `CCOC(=O)c1cccc(C(=O)Nc2nc3ccc(OC)cc3s2)n1` as the molecule, how does the Potency read?
A: inconclusive: 1.46 µM [activator, full curve, poor fit]

Q: For `Nc1c(C(=O)Nc2ccc(Cl)c(C(F)(F)F)c2)sc2nc(-c3ccncc3)ccc12`, which Potency is on record?
A: active: 7.31 µM

Q: Which Potency does the source give for `COc1ccc(S(=O)(=O)N(C(=O)c2ccncc2)c2ccc3oc4c(c3c2)CCCC4)cc1` here?
A: inconclusive: 14.6 µM [falling, partial curve]
